Measured values taken from patent US20160340382.
The exact form of at least one protein or probe is not confirmed. Where a protein sequence is shown, tags need not be part of it.

Target: T1, RNase A (UniProt P61823)
T1 sequence (looked up, limits assumed): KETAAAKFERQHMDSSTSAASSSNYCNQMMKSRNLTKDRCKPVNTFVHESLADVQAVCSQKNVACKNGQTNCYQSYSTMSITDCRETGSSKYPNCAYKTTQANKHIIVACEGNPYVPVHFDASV
Assay: enzyme reaction in vitro
Conditions: purified native protein

[1] = rU, other positions DNA, CITED Kelemen et al 1999, kcat/Km, label: 5'-6-FAM, 3'-6-TAMRA

## AAAUAAAA [Reference substrate D]
[1]
  activity on this sequence: active

## AAAUAAAATTTTTTTTTTTTTTT [RNase A substrate D (microarray)]
Single rU at position 4, all other positions DNA, 3' end tethered to glass [rU at 4, all other positions DNA, 3' end tethered to glass], 100 nM RNase A, 0.1 M MES, loss of Cy3 on array normalized to T-for-U DNA control, label: 5'-Cy3, letters built from the parent sequence and the stated change
  activity on this sequence: active

## AAUAAA [Reference substrate C]
[1]
  activity on this sequence: active

## AAUAAATTTTTTTTTTTTTTT [RNase A substrate C (microarray)]
Single rU at position 3, all other positions DNA, 3' end tethered to glass [rU at 3, all other positions DNA, 3' end tethered to glass], 100 nM RNase A, 0.1 M MES, loss of Cy3 on array normalized to T-for-U DNA control, label: 5'-Cy3, letters built from the parent sequence and the stated change
  activity on this sequence: active

## AUAATTTTTTTTTTTTTTT [RNase A substrate B (microarray)]
Single rU at position 2, all other positions DNA, 3' end tethered to glass [rU at 2, all other positions DNA, 3' end tethered to glass], 100 nM RNase A, 0.1 M MES, loss of Cy3 on array normalized to T-for-U DNA control, label: 5'-Cy3, letters built from the parent sequence and the stated change
  activity on this sequence: active

## UATTTTTTTTTTTTTTT [RNase A substrate A (microarray)]
Single rU at position 1, all other positions DNA, 3' end tethered to glass, 100 nM RNase A, 0.1 M MES, loss of Cy3 on array normalized to T-for-U DNA control, label: 5'-Cy3
  activity on this sequence: active
